Consider one molecule from paper doi:10.1101/2024.06.26.600760.

The chains behind the UniProt entries cited, without tags or fusion partners. Where a name states a change or a piece, a line headed by the entry shows the natural chain unless it says otherwise.
UniProt Q13315: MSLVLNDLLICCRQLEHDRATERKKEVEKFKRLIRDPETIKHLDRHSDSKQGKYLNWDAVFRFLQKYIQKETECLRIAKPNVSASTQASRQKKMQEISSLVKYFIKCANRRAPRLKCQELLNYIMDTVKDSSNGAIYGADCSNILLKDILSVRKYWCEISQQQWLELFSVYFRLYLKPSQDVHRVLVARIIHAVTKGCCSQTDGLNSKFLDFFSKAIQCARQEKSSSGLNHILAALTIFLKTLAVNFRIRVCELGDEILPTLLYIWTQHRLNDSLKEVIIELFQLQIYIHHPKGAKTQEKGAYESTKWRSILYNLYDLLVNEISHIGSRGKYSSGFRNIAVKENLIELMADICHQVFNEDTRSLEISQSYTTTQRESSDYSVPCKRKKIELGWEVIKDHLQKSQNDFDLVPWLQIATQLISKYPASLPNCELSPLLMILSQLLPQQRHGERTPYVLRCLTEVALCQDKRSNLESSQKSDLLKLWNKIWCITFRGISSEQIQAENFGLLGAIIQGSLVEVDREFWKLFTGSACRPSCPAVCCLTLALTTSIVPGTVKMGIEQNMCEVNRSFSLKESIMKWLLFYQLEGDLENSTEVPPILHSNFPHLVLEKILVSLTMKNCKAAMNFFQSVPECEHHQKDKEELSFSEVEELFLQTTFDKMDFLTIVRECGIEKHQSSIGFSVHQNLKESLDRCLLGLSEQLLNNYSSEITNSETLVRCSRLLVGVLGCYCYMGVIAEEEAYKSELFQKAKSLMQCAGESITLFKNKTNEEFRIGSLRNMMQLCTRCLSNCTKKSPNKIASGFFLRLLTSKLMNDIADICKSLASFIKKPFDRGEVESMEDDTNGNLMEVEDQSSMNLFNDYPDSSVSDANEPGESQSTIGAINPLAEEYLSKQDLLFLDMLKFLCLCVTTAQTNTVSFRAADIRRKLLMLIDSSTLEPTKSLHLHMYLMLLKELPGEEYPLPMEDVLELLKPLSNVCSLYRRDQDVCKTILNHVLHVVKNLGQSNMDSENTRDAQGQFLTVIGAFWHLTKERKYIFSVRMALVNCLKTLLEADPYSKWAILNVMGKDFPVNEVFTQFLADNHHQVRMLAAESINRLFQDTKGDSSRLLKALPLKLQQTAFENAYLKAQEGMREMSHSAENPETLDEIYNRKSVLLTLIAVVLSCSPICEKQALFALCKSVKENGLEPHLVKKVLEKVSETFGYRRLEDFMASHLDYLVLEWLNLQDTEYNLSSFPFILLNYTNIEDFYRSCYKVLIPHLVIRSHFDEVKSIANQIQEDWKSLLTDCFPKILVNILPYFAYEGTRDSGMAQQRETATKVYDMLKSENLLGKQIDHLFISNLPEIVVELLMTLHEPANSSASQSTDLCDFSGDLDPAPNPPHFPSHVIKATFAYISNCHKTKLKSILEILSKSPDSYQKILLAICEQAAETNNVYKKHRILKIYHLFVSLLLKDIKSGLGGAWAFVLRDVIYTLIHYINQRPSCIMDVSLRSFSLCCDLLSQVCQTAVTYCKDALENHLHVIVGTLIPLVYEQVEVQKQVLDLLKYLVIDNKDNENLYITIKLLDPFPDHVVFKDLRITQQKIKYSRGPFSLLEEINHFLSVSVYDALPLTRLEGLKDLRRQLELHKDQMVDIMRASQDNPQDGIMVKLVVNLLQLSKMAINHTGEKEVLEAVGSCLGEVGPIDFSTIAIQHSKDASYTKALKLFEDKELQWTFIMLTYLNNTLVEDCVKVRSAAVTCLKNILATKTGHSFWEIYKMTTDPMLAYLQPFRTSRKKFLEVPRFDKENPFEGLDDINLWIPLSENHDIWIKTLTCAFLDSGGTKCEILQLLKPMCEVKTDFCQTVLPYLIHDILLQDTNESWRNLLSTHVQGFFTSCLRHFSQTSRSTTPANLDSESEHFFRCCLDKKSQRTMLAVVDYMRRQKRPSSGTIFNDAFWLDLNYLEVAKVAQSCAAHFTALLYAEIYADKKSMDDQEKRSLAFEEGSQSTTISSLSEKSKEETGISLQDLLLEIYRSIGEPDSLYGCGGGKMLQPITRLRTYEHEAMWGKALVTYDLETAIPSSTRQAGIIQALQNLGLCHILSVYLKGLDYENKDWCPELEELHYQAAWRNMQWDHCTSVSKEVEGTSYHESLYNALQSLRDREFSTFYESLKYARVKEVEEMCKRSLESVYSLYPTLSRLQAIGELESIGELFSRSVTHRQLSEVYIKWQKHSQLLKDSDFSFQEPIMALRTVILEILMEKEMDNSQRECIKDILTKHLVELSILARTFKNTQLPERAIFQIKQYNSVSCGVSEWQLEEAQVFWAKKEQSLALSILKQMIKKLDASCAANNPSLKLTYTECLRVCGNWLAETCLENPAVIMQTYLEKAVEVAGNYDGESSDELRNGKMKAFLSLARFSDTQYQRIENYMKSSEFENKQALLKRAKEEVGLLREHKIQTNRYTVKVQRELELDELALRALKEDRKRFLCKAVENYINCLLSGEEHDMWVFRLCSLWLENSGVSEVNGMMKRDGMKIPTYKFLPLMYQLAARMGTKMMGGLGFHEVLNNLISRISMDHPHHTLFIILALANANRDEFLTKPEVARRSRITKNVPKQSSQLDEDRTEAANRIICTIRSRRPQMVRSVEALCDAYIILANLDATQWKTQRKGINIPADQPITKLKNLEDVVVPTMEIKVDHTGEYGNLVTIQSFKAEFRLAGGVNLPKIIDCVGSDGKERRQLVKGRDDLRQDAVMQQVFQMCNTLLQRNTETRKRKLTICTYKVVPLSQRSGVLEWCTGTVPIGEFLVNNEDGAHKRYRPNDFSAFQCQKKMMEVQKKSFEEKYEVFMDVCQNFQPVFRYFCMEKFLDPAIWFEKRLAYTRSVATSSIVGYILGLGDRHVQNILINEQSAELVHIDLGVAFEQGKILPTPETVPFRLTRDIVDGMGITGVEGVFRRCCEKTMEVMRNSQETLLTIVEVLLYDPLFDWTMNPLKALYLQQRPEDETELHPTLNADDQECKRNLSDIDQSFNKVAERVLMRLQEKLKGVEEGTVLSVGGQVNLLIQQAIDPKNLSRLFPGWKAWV

For the test, the target named is Ataxia Telangiectasia Mutated (ATM) (human (endogenous in SH-SY5Y)) (UniProt Q13315). Put plainly: co-IP.

No constants are given. Whether binding was seen depends on the method and setting. In cells and extracts the contact can be indirect. Some entries that bind do so weakly or less than the wild type.

B1: collapsin response mediator protein 5 (CRMP5) (protein, UniProt Q9BPU6 1-564)
chain: MLANSASVRILIKGGKVVNDDCTHEADVYIENGIIQQVGRELMIPGGAKVIDATGKLVIPGGIDTSTHFHQTFMNATCVDDFYHGTKAALVGGTTMIIGHVLPDKETSLVDAYEKCRGLADPKVCCDYALHVGITWWAPKVKAEMETLVREKGVNSFQMFMTYKDLYMLRDSELYQVLHACKDIGAIARVHAENGELVAEGAKEALDLGITGPEGIEISRPEELEAEATHRVITIANRTHCPIYLVNVSSISAGDVIAAAKMQGKVVLAETTTAHATLTGLHYYHQDWSHAAAYVTVPPLRLDTNTSTYLMSLLANDTLNIVASDHRPFTTKQKAMGKEDFTKIPHGVSGVQDRMSVIWERGVVGGKMDENRFVAVTSSNAAKLLNLYPRKGRIIPGADADVVVWDPEATKTISASTQVQGGDFNLYENMRCHGVPLVTISRGRVVYENGVFMCAEGTGKFCPLRSFPDTVYKKLVQREKTLKVRGVDRTPYLGDVAVVVHPGKKEMGTPLADTPTRPVTRHGGMRDLHESSFSLSGSQIDDHVPKRASARILAPPGGRSSGIW
For the molecule B1, the binding entry was “binds”.
